{
  "source": "paper PMC12198282",
  "about": "“Application of a high-density microelectrode array assay using a 3D human iPSC-derived brain microphysiological system model for in vitro neurotoxicity screening of environmental compounds” (Archives of Toxicology, 2025)",
  "test_system": "human iPSC-derived 3D BrainSpheres",
  "test": "BrainSphere MEA assay (HD-MEA, 13-day exposure, concentration-response)",
  "assay_type": "cell-based",
  "procedure": "A volume of 1 ml of Tergazyme (1% solution in deionized water) was added to each well of the MaxTwo 6-Well Plate (MaxWell Biosystems) and incubated overnight under constant gyratory shaking (88 RPM) at 37 °C and 5% CO2. The next day, Tergazyme solution was removed, and plates were washed with distilled water and ethanol. After remaining ethanol was evaporated, wells were washed with PBS. Then, 200 µl of Poly-D-Lysine (Gibco, A38904 - 01) was added on top of the electrodes and incubated at 37 °C and 5% CO2 for 3 h (humidified). Poly-D-Lysine was then removed, and wells were coated with 100 µl of 0.1 mg/ml laminin coating solution (Sigma-Aldrich, L2020 - 1 mg) and incubated for 2 h at 37 ℃ and 5% CO2 (humidified). The laminin was removed after incubation. Using a 1 ml micropipette, 1 ml of medium containing BrainSpheres (7 weeks differentiated), approximately 25 BrainSpheres per ml, was plated on top of the HD-MEA chip (Fig. 1A). […]\nThe MaxTwo high-density microelectrode array system (MaxWell Biosystems AG, Zurich, Switzerland) was used to measure neural activity with MaxTwo 6-well plates, where every well includes an integrated chip with 26,400 platinum electrodes arranged in an area of 3.85 × 2.10 mm^2 ([…]) (Muller et al. [2015]). The data were recorded and analyzed with the MaxLab Live Software (version 22.2.22). […] Over the course of the 13-day experiment, the same selected regions and electrodes were measured using the MaxLab Live Network Assay (600 s recording time).\nA custom analysis framework was used to extract the MaxLab Live neuronal metrics for the individual BrainSpheres. For this, electrodes comprising a single ROI (i.e., individual BrainSphere; Fig. 2D) were grouped using distance-based clustering (fcluster method of Scipy library, Python 3.7) and neural metrics were calculated for the clustered electrodes for every ROI separately. […] Ten MaxLab Live neural metrics (endpoints) were evaluated from the MaxLab live ActivityScan and Network Assay in this study. […]\nThe BrainSphere MEA assay measured changes in neural activity during a 13-day chemical exposure. […]",
  "note": "pEC50: −log10 of the molar value. Read-outs that look alike come from different tables or passages of the source.",
  "data": [
    {"smiles": "CN(C)C(=O)C(CCN1CCC(O)(c2ccc(Cl)cc2)CC1)(c1ccccc1)c1ccccc1", "note": "[Loperamide]", "values": [
      {"measurement": "pEC50", "setting": "read-out: Mean potency", "result": 5.57},
      {"measurement": "pEC50", "setting": "read-out: Minimum potency", "result": 7.52},
      {"measurement": "AC50", "setting": "read-out: ac50 Spheroid.Burst.Frequency", "result": 30, "unit": "nM"}
    ]}
  ]
}
